# Reference: the supplement of paper PMC9135407
# “And” between values parts separate entries of the source, which are not always exact repeats. Equal values may be shown once. Where a name gives a salt, the structure may show the parent alone. ± gives the standard deviation of the averaged measurements. Some of the results follow. Baselines shift from plate to plate; read single values as rough.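 Culture-activated primary human stellate myofibroblasts, where regained lipid droplets signal inactivation. Value: share of Hoechst-counted cells above a per-plate Bodipy cutoff, in duplicate wells, with DMSO negative and nortriptyline positive controls on each plate. Hits: a control-normalized score above the plate's top-tenth-percentile nortriptyline wells, or one of a plate's three best wells. Final well concentrations are not given.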
# Tested on: primary human hepatic stellate cells (donor 1)
# Experiment: percent Bodipy-positive cells; higher = more lipid droplet accumulation
# Settings: 48 h
# [1] = library stock concentration: 10 mM
# [2] = library stock concentration: 3.33 mM
# [3] = library stock concentration: 7.2 mM
# [4] = library stock concentration: 80 uM
# [5] = library stock concentration: 400 uM
# [6] = library stock concentration: 2 mM
structure (smiles),measurement,setting,value
OCc1cc(C(O)CNCCCCCCOCCCCc2ccccc2)ccc1O (stereo unspecified) [Salmeterol],percent Bodipy-positive cells,[1],86.8 ± 1.4%
CC(=O)Oc1cc2c(s1)CCN(C(C(=O)C1CC1)c1ccccc1F)C2 (stereo unspecified),percent Bodipy-positive cells,[1],29.6 ± 4.4%
CC(=O)Oc1cc2c(s1)CCN(C(C(=O)C1CC1)c1ccccc1F)C2 (stereo unspecified) [Prasugrel],percent Bodipy-positive cells,[2],10.9 ± 0.35%
same,percent Bodipy-positive cells,[1],15.5 ± 4.7%
Cn1cnc([N+](=O)[O-])c1Sc1ncnc2[nH]cnc12 [Azathioprine],percent Bodipy-positive cells,,27.2 ± 6.1%
same,percent Bodipy-positive cells,[2],6.17 ± 1.6%
same,percent Bodipy-positive cells,[3],1.87 ± 2.1%
same,percent Bodipy-positive cells,[1],14.8% and 24% and 11.2%
CC(C)C(=O)Nc1ccc([N+](=O)[O-])c(C(F)(F)F)c1,percent Bodipy-positive cells,[1],49.3 ± 20%
CC(C)C(=O)Nc1ccc([N+](=O)[O-])c(C(F)(F)F)c1 [Flutamide],percent Bodipy-positive cells,,24.7 ± 2.6%
same,percent Bodipy-positive cells,[2],7.42 ± 1.3%
same,percent Bodipy-positive cells,[3],11.4% and 8.87%
CC(C)(O)C1CCC(C)(C2C(O)CC3(C)C4CC(OC5OC(CO)C(O)C(O)C5O)C5C(C)(C)C(OC6OCC(O)C(O)C6O)CCC56CC46CCC23C)O1 (stereo unspecified) [Astragaloside A],percent Bodipy-positive cells,[2],5.91 ± 0.92%
same,percent Bodipy-positive cells,[1],11.3 ± 0.77%
OCCN1C[C@H](O)[C@@H](O)[C@H](O)[C@H]1CO,percent Bodipy-positive cells,[1],10.5 ± 3%
OCCN1C[C@H](O)[C@@H](O)[C@H](O)[C@H]1CO [Miglitol],percent Bodipy-positive cells,[2],9.5 ± 0.22%
same,percent Bodipy-positive cells,library stock concentration: 9.7 mM,21 ± 13%
CCC(=O)NC1CCc2cccc(OC)c2C1 (stereo unspecified),percent Bodipy-positive cells,[1],5.91 ± 1.9%
COc1ccccc1OCCNCC(O)COc1cccc2[nH]c3ccccc3c12 (stereo unspecified) [Carvedilol],percent Bodipy-positive cells,[1],80.5 ± 2.3%
S=C(NCc1ccc2c(c1)OCO2)N1CCN(c2ncnc3c2oc2ccccc23)CC1 [Amuvatinib (MP-470)],percent Bodipy-positive cells,[2],10.5 ± 0.23%
same,percent Bodipy-positive cells,[1],24.9 ± 0.95%
S=C(NCc1ccc2c(c1)OCO2)N1CCN(c2ncnc3c2oc2ccccc23)CC1,percent Bodipy-positive cells,[4],21.2 ± 1.5%
same,percent Bodipy-positive cells,[5],23.7 ± 9.6%
same,percent Bodipy-positive cells,[6],17.1 ± 1.4%
same,percent Bodipy-positive cells,[1],24.3 ± 3.9%
S=C(NCc1ccc2c(c1)OCO2)N1CCN(c2ncnc3c2oc2ccccc23)CC1 [Amuvatinib  (MP-470) (2 mM)],percent Bodipy-positive cells,[6],15 ± 0.83%
S=C(NCc1ccc2c(c1)OCO2)N1CCN(c2ncnc3c2oc2ccccc23)CC1 [Amuvatinib  (MP-470) (0.4 mM)],percent Bodipy-positive cells,[5],14.6 ± 2.6%
S=C(NCc1ccc2c(c1)OCO2)N1CCN(c2ncnc3c2oc2ccccc23)CC1 [Amuvatinib  (MP-470) (10 mM)],percent Bodipy-positive cells,[1],13.9 ± 2.2%
CC(=O)OCC[N+](C)(C)C [Acetylcholine Chloride],percent Bodipy-positive cells,[2],8.05 ± 0.96%
same,percent Bodipy-positive cells,[1],28.6 ± 18%
CC(=O)OCC[N+](C)(C)C [Miochol],percent Bodipy-positive cells,[1],41.9 ± 5%
CC(=O)OCC[N+](C)(C)C [Acetylcholine],percent Bodipy-positive cells,[1],13.4 ± 2.6%
same,percent Bodipy-positive cells,library stock concentration: 11 mM,2 ± 0.046%
N[C@@H](Cc1cc(-c2ccc(Cl)cc2Cl)cc(CP(=O)(O)O)c1O)C(=O)O,percent Bodipy-positive cells,[1],5.05 ± 1.4%
CC1(C)CCC2=C(O1)c1ccccc1C(=O)C2=O [beta-Lapachone],percent Bodipy-positive cells,[1],99.66 ± 0.48%
CC1(C)CCC2=C(O1)c1ccccc1C(=O)C2=O [Beta-lapachone],percent Bodipy-positive cells,library stock concentration: 20.6 mM,90.9 ± 1%
CC1(C)CCC2=C(O1)c1ccccc1C(=O)C2=O [Beta-Lapachone],percent Bodipy-positive cells,[2],99.3 ± 1%
same,percent Bodipy-positive cells,[1],99.19 ± 0.32%
O=C(Nc1ccncc1)Nc1c(Cl)cc(Cl)cc1Cl [Rho Kinase Inhibitor II],percent Bodipy-positive cells,[2],11.5 ± 1.1%
O=C1OC(OC(=O)c2cccnc2Nc2cccc(C(F)(F)F)c2)c2ccccc21 (stereo unspecified) [Talniflumate],percent Bodipy-positive cells,[1],8.09 ± 3.5%
COC(=O)C1=C(C)NC(C)=C(C(=O)OC(C)C)C1c1cccc2nonc12 (stereo unspecified),percent Bodipy-positive cells,library stock concentration: 9.9 mM,19 ± 5.1%
COC(=O)C1=C(C)NC(C)=C(C(=O)OC(C)C)C1c1cccc2nonc12 (stereo unspecified) [Isradipine],percent Bodipy-positive cells,,12.2 ± 2.4%
same,percent Bodipy-positive cells,[2],4.74 ± 1.9%
same,percent Bodipy-positive cells,[1],20.6% and 10%
CCN(CC)Cc1cc(Nc2ccnc3cc(Cl)ccc23)ccc1O.Cl.Cl.O.O [Amodiaquin dihydrochloride dihydrate],percent Bodipy-positive cells,,96.3 ± 1.6%
COc1cc(Oc2ccnc3cc(OC)c(OC)cc23)ccc1NC(=O)NC(C)c1nccs1 (stereo unspecified),percent Bodipy-positive cells,[4],8.11 ± 2.1%
same,percent Bodipy-positive cells,[5],9.76% and 20%
same,percent Bodipy-positive cells,[6],7.86% and 27.9%
Cn1c(Nc2ccc(C(F)(F)F)cc2)nc2cc(Oc3ccnc(-c4ncc(C(F)(F)F)[nH]4)c3)ccc21,percent Bodipy-positive cells,[4],4.57 ± 0.6%
same,percent Bodipy-positive cells,[5],5.62 ± 0.39%
same,percent Bodipy-positive cells,[6],4.71 ± 0.87%
same,percent Bodipy-positive cells,[2],6.01 ± 0.8%
same,percent Bodipy-positive cells,[1],6.78% and 2.43%
COc1ccc(/C=C\c2cc(OC)c(OC)c(OC)c2)cc1O [Combrestatin A4],percent Bodipy-positive cells,library stock concentration: 1 mM,44 ± 16%
C(=C(/CC1)\CCN1C)(/c2c3cccc2)\c4c(cccc4)C=C3.Cl [Cyproheptadine hydrochloride],percent Bodipy-positive cells,[1],97.15 ± 0.7%
O=C(O)/C=C/c1cnc[nH]1 [4-Imidazoleacrylic acid],percent Bodipy-positive cells,[1],24 ± 1.2%
C[C@H](CCC(=O)O)[C@H]1CC[C@H]2[C@@H]3CC[C@@H]4C[C@H](O)CC[C@]4(C)[C@H]3CC[C@]12C [Lithocholic acid],percent Bodipy-positive cells,,8.89 ± 1.7%
same,percent Bodipy-positive cells,[2],6.71 ± 2.7%
same,percent Bodipy-positive cells,[1],22.5% and 20.5%
CC(=O)SCC(Cc1ccccc1)C(=O)NCC(=O)OCc1ccccc1 (stereo unspecified) [Racecadotril],percent Bodipy-positive cells,,35.7 ± 4.3%
same,percent Bodipy-positive cells,[2],8.46 ± 2%
same,percent Bodipy-positive cells,library stock concentration: 5.2 mM,7.2 ± 0.69%
same,percent Bodipy-positive cells,[1],21.3 ± 6%
CC(=O)SCC(Cc1ccccc1)C(=O)NCC(=O)OCc1ccccc1 (stereo unspecified),percent Bodipy-positive cells,[1],10.5 ± 3.2%
NCc1c[nH]c(=S)n1C1CCc2c(F)cc(F)cc2C1 [(R)-Nepicastat HCl],percent Bodipy-positive cells,[2],25.1 ± 7.7%
same,percent Bodipy-positive cells,[1],63.6 ± 0.68%

# Some of the entries so far, as tab-separated lines:
structure (smiles)	measurement	setting	value
CC1(C)CCC2=C(O1)c1ccccc1C(=O)C2=O [Beta-Lapachone]	percent Bodipy-positive cells	[2]	99.3 ± 1%
same	percent Bodipy-positive cells	[1]	99.19 ± 0.32%
O=C(Nc1ccncc1)Nc1c(Cl)cc(Cl)cc1Cl [Rho Kinase Inhibitor II]	percent Bodipy-positive cells	[2]	11.5 ± 1.1%
O=C1OC(OC(=O)c2cccnc2Nc2cccc(C(F)(F)F)c2)c2ccccc21 (stereo unspecified) [Talniflumate]	percent Bodipy-positive cells	[1]	8.09 ± 3.5%
COC(=O)C1=C(C)NC(C)=C(C(=O)OC(C)C)C1c1cccc2nonc12 (stereo unspecified)	percent Bodipy-positive cells	library stock concentration: 9.9 mM	19 ± 5.1%
